Data reported in patent US9718861B2 (Universitaet Leipzig, priority 2011, dated 2017).
HELM strings list residues between dots; [ac] is acetyl, [am] amide, other brackets name non-standard units.

test: general procedure: Fmoc solid-phase peptide synthesis; Rink amide resin (21 mg, loading 0.63 mmol/g); DIC/HOBt; conditions: whole synthesis, analytical RP-HPLC, 220 nm, scale of the general procedure 21 mg resin

Substance	final HPLC purity
PEPTIDE1{K.[dW].F.[D-Dip].L.L.[am]}$$$$V2.0	>95%
K-(D-1-Nal)-F-(D-1-Nal)-LL-NH2	>95%
PEPTIDE1{K.[dW].F.[D-Bip].L.L.[am]}$$$$V2.0	95%
K-(D-1-Nal)-(D-Phe)-wLL-NH2	>95%
PEPTIDE1{K.[dW].F.[D-Bpa].L.L.[am]}$$$$V2.0	>95%
K-(D-1-Nal)-(L-Nva)-wLL-NH2	>95%
K-(D-1-Nal)-(Cha)-wLL-NH2	>95%
PEPTIDE1{K.[D-Trp(Me)].F.[dW].L.L.[am]}$$$$V2.0	>95%
